In patent publication US7022669B1 (Aventis Pharma S.A., priority 1999, dated 2006):

Test: general procedure: peptide synthesis; pentafluorophenyl ester (pentafluorophenol, N,N'-dicyclohexylcarbodiimide)
Settings: trifluoroacetate

1-[N2-[[4′-(octyloxy)-[1,1′-biphenyl]-4-yl] carbonyl]-4-oxo-L-ornithine]-4-[4-(4-hydroxyphenyl)-L-threonine]-5-L-serine-echinocandine B
step yield (late stage modification step): 55%

1-[(4R,5R)-4,5-dihydroxy-N-2-[[4′-(octyloxy)[1,1′-biphenyl]-4-yl]-carbonyl]-L-ornithine]-4-[4-(4-hydroxy-phenyl)-L-threonine]-5-L-serine echinocandin B
step yield (lipidation step): 73%
